From US8686035B2, “Composition and method for promoting hair growth” (R-Tech Ueno, Ltd., priority 2003, dated 2014)
Some results were stated once for a whole list of compounds, not compound by compound. At least one compound was matched to its structure with a doubt left.

Test system: C3H/HeN mice
Assay: Hair growth after topical application to clipped dorsal skin, macroscopic score (Example 1)
Type: in vivo
Conditions: 0.1% in 70% (w/w) aqueous ethanol, topical once daily, day 30 of treatment, individual animals; listed as compound B
Procedure: Eight-weeks-old male C3H/HeN mice were used. The hair on the back was clipped by electric clipper so that the hair in the clipped area was removed as much as possible. Three days after the clipping, mice without visible scratches were selected and used in this study. Each group consisted of 3 animals. After group assignment, the groups were housed separately in aluminum cages (3 animals/cage, 180 mm W×300 mm D×130 mm H; Nippon Cage, Ltd., Japan).
Each test compound was dissolved in 70% (w/w) aqueous ethanol. Each dose formulation of test compound was evenly applied topically once daily (100 μL per mouse) to the clipped dorsal skin area (approximately 2×4 cm), except for Saturday and Sunday, for 30 days. The control group received an equal amount of the vehicle in the same manner.
Macroscopic observations of the hair growth were performed 14, 16, 18, 21, 23, 25, 28 and 30 days after the start of the treatment. Hair growth was scored according to the scale below:
− no hair growth observed
± hair growth≦10% of the clipped area
+ hair growth 10-40% of the clipped area
++ hair growth 40-80% of the clipped area
+++ hair growth ≧80% of the clipped area

For CC(C)OC(=O)CCC/C=C\CC1C(O)CC(O)C1CCC1(CCc2ccccc2)OCCO1 (stereo not drawn) [Compound B, 13,14-dihydro-15,15-ethylenedioxy-17-phenyl-18,19,20-trinor-PGF2α isopropyl ester], the “Hair Growth Score” value was “+++ (hair growth ≧80% of the clipped area)”.
